Assay results published in the supplement of paper PMC10849652.
Some of the results follow.

Amino acid sequences for entries named in this document (tags omitted). A change or cut given only in a name is not applied to a line headed by its entry.
UniProt O15347: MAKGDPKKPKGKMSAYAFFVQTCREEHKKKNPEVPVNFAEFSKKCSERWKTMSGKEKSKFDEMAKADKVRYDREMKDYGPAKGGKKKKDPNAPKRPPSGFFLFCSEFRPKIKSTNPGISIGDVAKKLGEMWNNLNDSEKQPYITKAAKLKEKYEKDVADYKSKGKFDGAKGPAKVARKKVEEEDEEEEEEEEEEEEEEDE
UniProt P17066, whole entry, looked up: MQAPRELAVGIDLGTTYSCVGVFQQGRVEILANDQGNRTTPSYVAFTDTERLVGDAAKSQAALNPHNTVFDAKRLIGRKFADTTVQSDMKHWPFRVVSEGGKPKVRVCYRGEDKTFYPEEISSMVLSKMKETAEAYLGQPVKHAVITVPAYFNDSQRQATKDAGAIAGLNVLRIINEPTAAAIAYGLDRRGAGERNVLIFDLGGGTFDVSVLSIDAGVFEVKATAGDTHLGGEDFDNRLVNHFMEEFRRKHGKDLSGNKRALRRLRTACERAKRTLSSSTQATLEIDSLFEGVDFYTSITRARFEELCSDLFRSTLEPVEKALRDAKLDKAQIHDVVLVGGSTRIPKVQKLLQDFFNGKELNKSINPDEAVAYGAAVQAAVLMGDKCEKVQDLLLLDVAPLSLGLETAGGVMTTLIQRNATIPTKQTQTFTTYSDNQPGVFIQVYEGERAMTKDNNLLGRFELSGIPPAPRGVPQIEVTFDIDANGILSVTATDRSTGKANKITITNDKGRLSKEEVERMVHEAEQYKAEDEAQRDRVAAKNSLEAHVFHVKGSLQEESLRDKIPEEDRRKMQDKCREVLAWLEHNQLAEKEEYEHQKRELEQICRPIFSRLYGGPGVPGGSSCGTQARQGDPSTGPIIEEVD
UniProt P55795: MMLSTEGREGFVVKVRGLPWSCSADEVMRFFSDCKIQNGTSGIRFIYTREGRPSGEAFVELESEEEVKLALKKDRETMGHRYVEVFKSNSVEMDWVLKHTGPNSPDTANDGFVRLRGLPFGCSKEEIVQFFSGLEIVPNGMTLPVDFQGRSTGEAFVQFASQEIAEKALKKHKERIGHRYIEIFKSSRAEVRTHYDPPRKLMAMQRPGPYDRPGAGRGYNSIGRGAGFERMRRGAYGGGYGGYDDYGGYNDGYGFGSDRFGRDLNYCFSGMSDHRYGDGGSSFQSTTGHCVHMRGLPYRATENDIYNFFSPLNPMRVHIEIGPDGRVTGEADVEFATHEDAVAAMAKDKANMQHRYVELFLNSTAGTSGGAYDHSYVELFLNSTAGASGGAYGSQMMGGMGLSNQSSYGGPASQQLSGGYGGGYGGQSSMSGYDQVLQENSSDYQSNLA
UniProt Q9NWY4: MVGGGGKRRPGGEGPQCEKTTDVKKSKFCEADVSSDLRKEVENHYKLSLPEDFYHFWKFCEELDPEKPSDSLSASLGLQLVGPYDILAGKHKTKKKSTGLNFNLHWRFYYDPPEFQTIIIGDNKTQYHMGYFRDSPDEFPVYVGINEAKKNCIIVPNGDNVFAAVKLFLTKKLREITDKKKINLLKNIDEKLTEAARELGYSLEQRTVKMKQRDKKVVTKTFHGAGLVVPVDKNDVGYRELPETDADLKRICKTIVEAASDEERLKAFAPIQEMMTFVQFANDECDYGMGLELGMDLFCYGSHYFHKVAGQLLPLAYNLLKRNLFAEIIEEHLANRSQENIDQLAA
UniProt Q53T59: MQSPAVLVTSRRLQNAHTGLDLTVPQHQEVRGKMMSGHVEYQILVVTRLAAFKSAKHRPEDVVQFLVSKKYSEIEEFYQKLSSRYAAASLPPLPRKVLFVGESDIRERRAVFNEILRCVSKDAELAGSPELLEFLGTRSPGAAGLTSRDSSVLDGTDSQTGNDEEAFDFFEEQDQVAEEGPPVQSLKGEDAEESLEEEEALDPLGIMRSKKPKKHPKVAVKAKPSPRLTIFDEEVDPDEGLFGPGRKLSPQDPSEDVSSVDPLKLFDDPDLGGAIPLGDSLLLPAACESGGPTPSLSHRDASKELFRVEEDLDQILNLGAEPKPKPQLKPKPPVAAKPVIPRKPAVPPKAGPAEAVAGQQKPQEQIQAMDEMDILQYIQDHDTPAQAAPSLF
UniProt P51991: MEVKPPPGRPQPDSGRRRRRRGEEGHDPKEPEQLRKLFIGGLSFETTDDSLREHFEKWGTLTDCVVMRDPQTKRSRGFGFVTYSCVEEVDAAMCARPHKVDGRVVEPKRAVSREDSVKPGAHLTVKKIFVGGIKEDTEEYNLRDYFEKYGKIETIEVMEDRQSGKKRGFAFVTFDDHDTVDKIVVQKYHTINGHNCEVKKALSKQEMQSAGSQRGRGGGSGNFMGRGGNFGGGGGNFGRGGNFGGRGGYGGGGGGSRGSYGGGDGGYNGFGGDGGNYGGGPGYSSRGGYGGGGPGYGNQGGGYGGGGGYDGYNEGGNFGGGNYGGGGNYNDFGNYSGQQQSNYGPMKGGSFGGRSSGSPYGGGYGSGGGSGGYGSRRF
UniProt Q1KMD3: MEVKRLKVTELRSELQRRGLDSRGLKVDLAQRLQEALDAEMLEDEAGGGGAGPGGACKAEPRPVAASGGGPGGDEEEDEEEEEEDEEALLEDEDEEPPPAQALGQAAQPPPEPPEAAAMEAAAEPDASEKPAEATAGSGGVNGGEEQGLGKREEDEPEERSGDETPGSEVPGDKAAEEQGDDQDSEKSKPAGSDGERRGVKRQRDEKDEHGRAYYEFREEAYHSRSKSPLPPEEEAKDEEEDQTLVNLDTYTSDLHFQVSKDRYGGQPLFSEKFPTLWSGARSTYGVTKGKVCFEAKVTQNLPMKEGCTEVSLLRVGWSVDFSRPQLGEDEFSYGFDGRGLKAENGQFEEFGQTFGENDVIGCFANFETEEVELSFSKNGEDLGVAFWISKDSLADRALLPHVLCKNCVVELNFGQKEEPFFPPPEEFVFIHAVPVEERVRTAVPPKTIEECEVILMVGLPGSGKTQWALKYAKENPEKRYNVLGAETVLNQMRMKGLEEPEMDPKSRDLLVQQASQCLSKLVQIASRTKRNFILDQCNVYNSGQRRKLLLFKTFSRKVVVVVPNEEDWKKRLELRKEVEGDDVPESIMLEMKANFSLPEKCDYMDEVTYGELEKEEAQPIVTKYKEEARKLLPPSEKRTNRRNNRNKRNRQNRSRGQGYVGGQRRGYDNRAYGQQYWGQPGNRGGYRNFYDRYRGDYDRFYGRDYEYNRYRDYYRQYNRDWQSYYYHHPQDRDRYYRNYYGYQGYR
UniProt Q9BXL5: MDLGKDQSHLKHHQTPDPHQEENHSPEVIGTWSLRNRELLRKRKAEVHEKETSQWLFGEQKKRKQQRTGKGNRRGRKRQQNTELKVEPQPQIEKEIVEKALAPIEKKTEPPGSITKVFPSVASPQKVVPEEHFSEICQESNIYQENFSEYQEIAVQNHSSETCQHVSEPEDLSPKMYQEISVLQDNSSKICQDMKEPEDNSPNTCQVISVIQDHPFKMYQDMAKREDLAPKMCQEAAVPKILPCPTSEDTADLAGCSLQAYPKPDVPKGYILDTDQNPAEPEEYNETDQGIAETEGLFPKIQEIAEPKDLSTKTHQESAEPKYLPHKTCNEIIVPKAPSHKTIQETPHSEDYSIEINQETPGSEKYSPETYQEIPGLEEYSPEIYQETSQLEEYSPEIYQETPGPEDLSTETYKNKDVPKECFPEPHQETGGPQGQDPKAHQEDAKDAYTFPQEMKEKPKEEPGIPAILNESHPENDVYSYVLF
UniProt Q14103: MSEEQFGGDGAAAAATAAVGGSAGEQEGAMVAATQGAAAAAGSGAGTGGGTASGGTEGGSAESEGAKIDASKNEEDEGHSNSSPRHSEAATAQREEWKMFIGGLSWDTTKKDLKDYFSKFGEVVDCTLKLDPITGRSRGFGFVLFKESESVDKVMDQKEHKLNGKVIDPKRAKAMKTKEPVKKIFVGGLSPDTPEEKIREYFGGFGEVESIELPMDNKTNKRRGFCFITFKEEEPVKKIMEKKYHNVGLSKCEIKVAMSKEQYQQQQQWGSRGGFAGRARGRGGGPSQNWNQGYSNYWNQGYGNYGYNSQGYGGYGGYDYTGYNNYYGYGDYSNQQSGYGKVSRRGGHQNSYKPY
UniProt O75146: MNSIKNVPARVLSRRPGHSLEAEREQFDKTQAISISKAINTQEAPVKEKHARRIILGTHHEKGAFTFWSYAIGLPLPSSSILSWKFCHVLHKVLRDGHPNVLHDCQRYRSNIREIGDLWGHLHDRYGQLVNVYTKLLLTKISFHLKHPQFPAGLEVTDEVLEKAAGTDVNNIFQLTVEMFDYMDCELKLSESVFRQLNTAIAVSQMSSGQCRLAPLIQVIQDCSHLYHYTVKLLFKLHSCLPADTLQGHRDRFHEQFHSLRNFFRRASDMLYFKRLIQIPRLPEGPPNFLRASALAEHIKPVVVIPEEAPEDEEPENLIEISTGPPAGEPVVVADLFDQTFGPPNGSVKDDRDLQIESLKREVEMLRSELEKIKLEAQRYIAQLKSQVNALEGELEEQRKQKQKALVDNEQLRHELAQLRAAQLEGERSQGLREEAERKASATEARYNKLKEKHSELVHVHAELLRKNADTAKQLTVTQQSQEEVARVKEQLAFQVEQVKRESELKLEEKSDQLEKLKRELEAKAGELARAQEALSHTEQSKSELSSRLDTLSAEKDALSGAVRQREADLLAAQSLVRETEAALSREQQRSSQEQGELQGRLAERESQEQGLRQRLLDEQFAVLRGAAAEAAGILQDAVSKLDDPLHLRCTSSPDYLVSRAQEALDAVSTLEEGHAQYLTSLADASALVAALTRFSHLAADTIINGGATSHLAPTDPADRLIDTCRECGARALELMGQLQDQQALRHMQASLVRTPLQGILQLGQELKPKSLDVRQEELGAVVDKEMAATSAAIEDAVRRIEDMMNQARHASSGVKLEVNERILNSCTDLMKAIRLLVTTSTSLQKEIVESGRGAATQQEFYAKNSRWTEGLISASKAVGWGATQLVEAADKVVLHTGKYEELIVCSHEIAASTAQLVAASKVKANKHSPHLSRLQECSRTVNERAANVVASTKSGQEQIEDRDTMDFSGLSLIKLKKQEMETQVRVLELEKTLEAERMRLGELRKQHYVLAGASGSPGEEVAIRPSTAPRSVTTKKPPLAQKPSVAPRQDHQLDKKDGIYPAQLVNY
UniProt P07686: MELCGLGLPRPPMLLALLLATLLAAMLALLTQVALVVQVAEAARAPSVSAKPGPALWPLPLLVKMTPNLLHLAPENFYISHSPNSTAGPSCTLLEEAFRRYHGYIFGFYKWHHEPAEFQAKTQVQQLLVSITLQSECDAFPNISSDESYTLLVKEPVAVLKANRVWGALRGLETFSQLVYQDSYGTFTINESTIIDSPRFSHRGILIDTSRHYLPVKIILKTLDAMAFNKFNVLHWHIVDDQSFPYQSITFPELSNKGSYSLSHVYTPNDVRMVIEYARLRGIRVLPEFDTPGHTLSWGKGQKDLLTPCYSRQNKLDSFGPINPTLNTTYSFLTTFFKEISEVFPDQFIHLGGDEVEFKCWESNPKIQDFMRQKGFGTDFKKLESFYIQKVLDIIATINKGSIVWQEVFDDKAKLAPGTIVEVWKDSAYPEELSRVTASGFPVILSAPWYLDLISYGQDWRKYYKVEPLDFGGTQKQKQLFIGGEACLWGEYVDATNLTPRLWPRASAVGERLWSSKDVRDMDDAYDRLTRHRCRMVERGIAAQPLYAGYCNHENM
UniProt Q9NP66: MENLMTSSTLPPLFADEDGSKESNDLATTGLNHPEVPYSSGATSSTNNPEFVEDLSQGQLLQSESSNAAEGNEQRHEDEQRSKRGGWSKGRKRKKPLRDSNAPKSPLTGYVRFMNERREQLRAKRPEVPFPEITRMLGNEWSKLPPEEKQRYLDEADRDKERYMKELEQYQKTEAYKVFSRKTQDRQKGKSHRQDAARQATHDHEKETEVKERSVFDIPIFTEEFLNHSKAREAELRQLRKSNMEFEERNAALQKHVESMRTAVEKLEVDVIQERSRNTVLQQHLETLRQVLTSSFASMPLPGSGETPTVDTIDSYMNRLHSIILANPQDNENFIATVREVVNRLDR
UniProt P26583: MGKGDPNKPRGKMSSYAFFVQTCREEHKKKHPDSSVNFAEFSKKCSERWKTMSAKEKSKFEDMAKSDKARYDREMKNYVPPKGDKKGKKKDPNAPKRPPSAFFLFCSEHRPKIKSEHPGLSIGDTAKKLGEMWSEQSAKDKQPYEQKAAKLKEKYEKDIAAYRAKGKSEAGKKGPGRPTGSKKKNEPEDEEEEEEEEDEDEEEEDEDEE
UniProt Q92506: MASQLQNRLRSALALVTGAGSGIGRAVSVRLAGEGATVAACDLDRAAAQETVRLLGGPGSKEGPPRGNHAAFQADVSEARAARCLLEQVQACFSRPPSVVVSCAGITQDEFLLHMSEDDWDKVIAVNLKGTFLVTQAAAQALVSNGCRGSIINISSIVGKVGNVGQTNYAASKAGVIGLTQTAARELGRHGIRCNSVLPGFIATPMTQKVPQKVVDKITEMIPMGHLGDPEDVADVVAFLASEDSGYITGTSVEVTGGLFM

Tests used:
Test in all cases: log2 fold change, soluble protein after heating vs DMSO (PISA); higher = thermal stabilisation; K562 lysate, 10 uM; active = over 0.2 and 3.5 SD of the protein, either way, in both replicates (recomputed)
lapatinib = compound: CS(=O)(=O)CCNCc1ccc(-c2ccc3ncnc(Nc4ccc(OCc5cccc(F)c5)c(Cl)c4)c3c2)o1 [lapatinib]
In short: (§1)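 Pellets of K562 cells were dounce-homogenised in PBS pH 7.4 with 1 mM MgCl2, and the crude extract was held at 1 mg/mL protein for a 30 min treatment with 10 μM compound. Aliquots were heated for 3 min over 48°C-58°C and pooled before NP-40 was added to 0.5% at 4°C. The supernatant from 21,000xg for 90 min was quantified by TMTpro 16plex LC-MS/MS with channel sums equalised. Values are reported from duplicates as log-two fold change in thermal stability relative to solvent controls.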

pictilisib = compound: CS(=O)(=O)N1CCN(Cc2cc3nc(-c4cccc5[nH]ncc45)nc(N4CCOCC4)c3s2)CC1 [pictilisib]
In short: as §1

crizotinib = compound: C[C@@H](Oc1cc(-c2cnn(C3CCNCC3)c2)cnc1N)c1c(Cl)ccc(F)c1Cl [crizotinib]
In short: as §1

[1] = compound: C[C@H](C1=CC=C(C=C1)C(=O)NC2=C3C=CNC3=NC=C2)N
In short: as §1

duvelisib = compound: C[C@H](Nc1ncnc2nc[nH]c12)c1cc2cccc(Cl)c2c(=O)n1-c1ccccc1 [duvelisib]
In short: as §1

gandotinib = compound: Cc1cc(Nc2cc(CN3CCOCC3)c3nc(C)c(Cc4ccc(Cl)cc4F)n3n2)n[nH]1 [gandotinib]
In short: as §1

tozasertib = compound: Cc1cc(Nc2cc(N3CCN(C)CC3)nc(Sc3ccc(NC(=O)C4CC4)cc3)n2)n[nH]1 [tozasertib]
In short: as §1

doramapimod = compound: Cc1ccc(-n2nc(C(C)(C)C)cc2NC(=O)Nc2ccc(OCCN3CCOCC3)c3ccccc23)cc1 [doramapimod]
In short: as §1

bafetinib = compound: Cc1ccc(NC(=O)c2ccc(CN3CC[C@H](N(C)C)C3)c(C(F)(F)F)c2)cc1Nc1nccc(-c2cncnc2)n1 [bafetinib]
In short: as §1

[2] = compound: Cc1cccc(CC(=O)N2CCc3c2ccc(-c2cn(C)c4ncnc(N)c24)c3F)n1
In short: as §1

nilotinib = compound: Cc1cn(-c2cc(NC(=O)c3ccc(C)c(Nc4nccc(-c5cccnc5)n4)c3)cc(C(F)(F)F)c2)cn1 [nilotinib]
In short: as §1

[3] = compound: Cc1nc(Nc2n[nH]c3c2CN(C(=O)N[C@H](CN(C)C)c2ccccc2)C3(C)C)c2sccc2n1
In short: as §1

dasatinib = compound: Cc1nc(Nc2ncc(C(=O)Nc3c(C)cccc3Cl)s2)cc(N2CCN(CCO)CC2)n1 [dasatinib]
In short: as §1

[4] = compound: Cc1ncc(-c2ccnc(Nc3ccc(S(C)(=O)=O)cc3)n2)n1C(C)C
In short: as §1

[5] = compound: Cn1cc(-c2ccc3c(c2)CCN3C(=O)Cc2cccc(C(F)(F)F)c2)c2c(N)ncnc21
In short: as §1

quisinostat = compound: Cn1cc(CNCC2CCN(c3ncc(C(=O)NO)cn3)CC2)c2ccccc21 [quisinostat]
In short: as §1

tipifarnib = compound: Cn1cncc1[C@@](N)(c1ccc(Cl)cc1)c1ccc2c(c1)c(-c1cccc(Cl)c1)cc(=O)n2C [tipifarnib]
In short: as §1

[6] = compound: NC(=O)Nc1cc(-c2cccc(F)c2)sc1C(=O)N[C@H]1CCCNC1
In short: as §1

[7] = compound: NC(=O)c1cnc(N[C@@H]2CCCC[C@@H]2N)nc1Nc1cccc(-n2nccn2)c1
In short: as §1

[8] = compound: NC1(c2ccc(-c3nc4ccn5c(=O)[nH]nc5c4cc3-c3ccccc3)cc2)CCC1
In short: as §1

| Target | log2 fold change (lapatinib) | log2 fold change (pictilisib) | log2 fold change (crizotinib) | log2 fold change [1] | log2 fold change (duvelisib) | log2 fold change (gandotinib) | log2 fold change (tozasertib) | log2 fold change (doramapimod) | log2 fold change (bafetinib) | log2 fold change [2] | log2 fold change (nilotinib) | log2 fold change [3] | log2 fold change (dasatinib) | log2 fold change [4] | log2 fold change [5] | log2 fold change (quisinostat) | log2 fold change (tipifarnib) | log2 fold change [6] | log2 fold change [7] | log2 fold change [8] |
| --- | --- | --- | --- | --- | --- | --- | --- | --- | --- | --- | --- | --- | --- | --- | --- | --- | --- | --- | --- | --- |
| HMGB3 (UniProt O15347) | inactive: 0.054 | inactive: 0.085 | inactive: 0.014 | inactive: 0.008 | inactive: -0.002 | inactive: -0.034 | inactive: -0.018 | inactive: -0.045 | inactive: -0.011 | inactive: -0.103 | inactive: 0.016 | inactive: 0.025 | inactive: 0.052 | inactive: 0.003 | inactive: -0.052 | inactive: 0.043 | inactive: 0.025 | inactive: -0.023 | inactive: -0.038 | inactive: -0.007 |
| HSPA6 (UniProt P17066) | inactive: -0.005 | inactive: 0.035 | inactive: -0.004 | inactive: -0.059 | inactive: 0.027 | inactive: 0.022 | inactive: -0.052 | inactive: -0.004 | inactive: -0.01 | inactive: 0.048 | inactive: 0 | inactive: -0.035 | inactive: -0.247 | inactive: 0.004 | inactive: 0.102 | inactive: -0.024 | inactive: -0.003 | inactive: -0.017 | inactive: 0.033 | inactive: -0.024 |
| HNRNPH2 (UniProt P55795) | inactive: 0.025 | inactive: -0.004 | inactive: -0.097 | inactive: -0.048 | inactive: -0.024 | inactive: 0.068 | inactive: -0.032 | inactive: 0.062 | inactive: 0.018 | inactive: 0.008 | inactive: -0.07 | inactive: 0.04 | inactive: 0.049 | inactive: 0.071 | inactive: 0.003 | inactive: -0.147 | inactive: -0.003 | inactive: 0.014 | inactive: -0.037 | inactive: -0.113 |
| HPF1 (UniProt Q9NWY4) | inactive: -0.04 | inactive: -0.01 | inactive: -0.015 | inactive: 0.016 | inactive: 0.024 | inactive: -0.06 | inactive: 0.014 | inactive: 0.02 | inactive: -0.062 | inactive: 0.027 | inactive: 0.024 | inactive: -0.012 | inactive: -0.047 | inactive: -0.041 | inactive: 0.083 | inactive: -0.04 | inactive: -0.009 | inactive: 0.051 | inactive: 0.048 | inactive: -0.035 |
| HS1BP3 (UniProt Q53T59) | inactive: 0.024 | inactive: -0.019 | inactive: 0.006 | active: -0.253 | inactive: -0.047 | inactive: 0.068 | inactive: 0.021 | inactive: -0.019 | inactive: -0.048 | inactive: 0.074 | inactive: 0.021 | inactive: -0.016 | inactive: 0.023 | inactive: -0.007 | inactive: 0 | inactive: -0.006 | inactive: 0.042 | inactive: -0.019 | inactive: 0.024 | inactive: -0.014 |
| HSPA5 (UniProt P11021) | inactive: -0.019 | inactive: 0.018 | inactive: 0.026 | inactive: 0.034 | inactive: 0.015 | inactive: -0.077 | inactive: 0.05 | inactive: 0.022 | inactive: 0.044 | inactive: -0.079 | inactive: -0.002 | inactive: -0.007 | inactive: -0.001 | inactive: -0.003 | inactive: -0.021 | inactive: 0.045 | inactive: 0.007 | inactive: -0.044 | inactive: -0.016 | inactive: 0.037 |
| HNRNPA3 (UniProt P51991) | inactive: 0 | inactive: -0.035 | inactive: 0.075 | inactive: 0.006 | inactive: -0.012 | inactive: -0.024 | inactive: 0.017 | inactive: -0.015 | inactive: 0.02 | inactive: -0.039 | inactive: 0.033 | inactive: -0.011 | inactive: 0.033 | inactive: 0.036 | inactive: 0.069 | inactive: 0.11 | inactive: 0.092 | inactive: -0.03 | inactive: -0.021 | inactive: 0.062 |
| HNRNPUL2 (UniProt Q1KMD3) | inactive: -0.037 | inactive: -0.028 | inactive: -0.033 | inactive: -0.002 | inactive: 0.012 | inactive: -0.005 | inactive: 0.009 | inactive: -0.008 | inactive: -0.009 | inactive: 0.043 | inactive: -0.037 | inactive: 0.02 | inactive: 0.002 | inactive: 0.009 | inactive: -0.005 | inactive: -0.046 | inactive: 0.008 | inactive: 0 | inactive: 0.004 | inactive: -0.008 |
| HMGN4 (UniProt O00479) | inactive: 0.038 | inactive: -0.044 | inactive: 0.047 | active: 1.19 | inactive: -0.074 | inactive: -0.421 | inactive: 0.078 | inactive: -0.163 | inactive: 0.6 | inactive: -0.551 | inactive: 0.049 | inactive: -0.072 | inactive: 0.192 | inactive: 0.009 | inactive: 0.003 | inactive: 0.171 | inactive: 0.001 | inactive: -0.019 | inactive: 0.012 | inactive: -0.028 |
| HEMGN (UniProt Q9BXL5) | inactive: -0.007 | inactive: 0.004 | inactive: 0.039 | inactive: 0.03 | inactive: -0.014 | inactive: -0.016 | inactive: -0.002 | inactive: -0.032 | inactive: 0.036 | inactive: -0.134 | inactive: -0.011 | inactive: -0.002 | inactive: 0.021 | inactive: 0.013 | inactive: 0.011 | inactive: 0.027 | inactive: 0.019 | inactive: -0.026 | inactive: -0.03 | inactive: -0.005 |
| HNRNPD isoform 2 (UniProt Q14103) | inactive: 0.047 | inactive: 0.043 | inactive: 0.034 | active: 0.559 | inactive: 0.015 | inactive: -0.085 | inactive: 0.004 | inactive: -0.023 | inactive: 0.095 | inactive: -0.108 | inactive: -0.047 | inactive: 0 | inactive: -0.02 | inactive: 0.009 | inactive: -0.05 | inactive: 0.139 | inactive: 0.029 | inactive: -0.025 | inactive: 0.015 | inactive: -0.008 |
| HIP1R (UniProt O75146) | inactive: -0.022 | inactive: -0.032 | inactive: -0.028 | inactive: 0.047 | inactive: -0.009 | inactive: -0.016 | inactive: 0.005 | inactive: -0.04 | inactive: -0.046 | inactive: -0.006 | inactive: -0.033 | inactive: 0.007 | inactive: -0.036 | inactive: 0.011 | inactive: -0.035 | inactive: -0.031 | inactive: 0.001 | inactive: 0.007 | inactive: 0.013 | inactive: -0.018 |
| HEXB (UniProt P07686) | inactive: -0.007 | inactive: -0.02 | inactive: 0.011 | inactive: 0.037 | inactive: 0.014 | inactive: -0.039 | inactive: 0.01 | inactive: 0.017 | inactive: 0.001 | inactive: -0.081 | inactive: -0.013 | inactive: -0.017 | inactive: 0.009 | inactive: 0.015 | inactive: 0.022 | inactive: 0.076 | inactive: 0.035 | inactive: -0.004 | inactive: -0.005 | inactive: -0.003 |
| HMG20A (UniProt Q9NP66) | inactive: -0.034 | inactive: -0.036 | inactive: 0.034 | inactive: -0.021 | inactive: 0.025 | inactive: 0.029 | inactive: 0.053 | inactive: -0.034 | inactive: 0.032 | inactive: 0.038 | inactive: -0.032 | inactive: 0.011 | inactive: 0.046 | inactive: -0.019 | inactive: 0.003 | inactive: 0 | inactive: 0.01 | inactive: 0.013 | inactive: -0.009 | inactive: 0.091 |
| HMGB2 (UniProt P26583) | inactive: 0.006 | inactive: 0.021 | inactive: 0.052 | active: 0.266 | inactive: -0.01 | inactive: -0.16 | inactive: -0.022 | inactive: -0.088 | inactive: 0.14 | active: -0.244 | inactive: 0.045 | inactive: -0.042 | inactive: 0.057 | inactive: 0.077 | inactive: 0.018 | inactive: 0.065 | inactive: 0.033 | inactive: -0.014 | inactive: -0.018 | inactive: 0 |
| HSD17B8 (UniProt Q92506) | inactive: -0.017 | inactive: -0.006 | inactive: 0.004 | inactive: -0.084 | inactive: 0.006 | inactive: 0.071 | inactive: 0.016 | inactive: -0.007 | inactive: -0.014 | inactive: -0.017 | inactive: 0.017 | inactive: -0.004 | inactive: -0.005 | inactive: 0.029 | inactive: -0.003 | inactive: -0.009 | inactive: 0.034 | inactive: 0.034 | inactive: -0.005 | inactive: -0.008 |

An excerpt from above with just log2 fold change (tipifarnib) and log2 fold change (lapatinib).

| Target | log2 fold change (tipifarnib) | log2 fold change (lapatinib) |
| --- | --- | --- |
| HEMGN (UniProt Q9BXL5) | inactive: 0.019 | inactive: -0.007 |
| HEXB (UniProt P07686) | inactive: 0.035 | inactive: -0.007 |
